Reference: PubChem BioAssay AID504774 (Drosophila RNAi Screening Center, 2011)

Test: 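Knock-downs that shift viability of MMS-exposed cells relative to untreated ones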 (primary screen)
Cell system: Drosophila Kc167 cells
Knock-down reagent: long dsRNA against Drosophila genes, about 0.25 µg dsRNA per well
Time to read-out: about 6 days: 3 days knock-down, then 3 days with or without MMS
Conditions: methyl methanesulphonate 0.004% (w/v) for 3 days after knock-down
Read-out: 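ATP-dependent luminescence as a measure of live cells in MMS-exposed wells, quantile normalised within each plate, with replicate values also given as a mean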
Direction: mean viability with MMS and viability with MMS: higher = more surviving cells after MMS
In all, the deposit lists about 23,000 reagents; this is a random part of those that have a named target and a result. 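Values are quantile-normalised luminescence on an arbitrary scale; higher means more cells surviving MMS.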 The numbers tell different reagents against one gene apart. Names joined by + are all predicted targets of the reagent.

| target gene | dsRNA no. | mean viability with MMS | viability with MMS, replicate 1 | viability with MMS, replicate 2 |
| --- | --- | --- | --- | --- |
| yellow-e | 1 | 3.78e6 | 4.33e6 | 4.04e6 |
| yellow-e | 2 | 3.62e6 | 4.16e6 | 4.08e6 |
| CG6729 | 1 | 3.59e6 | 4.10e6 | 4.08e6 |
| CG6729 | 2 | 3.47e6 | 4.05e6 | 3.87e6 |
| PI31 | 1 | 3.36e6 | 3.82e6 | 3.76e6 |
| Yod1 | 1 | 3.67e6 | 4.11e6 | 4.21e6 |
| eIF3k | 1 | 3.32e6 | 3.48e6 | 3.70e6 |
| nonA | 1 | 3.63e6 | 4.02e6 | 4.19e6 |
| CG8289 | 1 | 3.75e6 | 4.19e6 | 4.36e6 |
| Alg7 | 1 | 3.66e6 | 4.25e6 | 4.11e6 |
| Alg7 | 2 | 3.55e6 | 4.06e6 | 3.99e6 |
| CG6739 | 1 | 3.44e6 | 3.90e6 | 3.89e6 |
| CG13481 | 1 | 3.54e6 | 4.10e6 | 3.94e6 |
| CG12995 | 1 | 3.43e6 | 3.90e6 | 3.86e6 |
| ZnT35C | 1 | 3.58e6 | 4.10e6 | 4.01e6 |
| gb | 1 | 3.83e6 | 4.05e6 | 4.63e6 |
| CR34254 | 1 | 3.34e6 | 3.76e6 | 3.87e6 |
| rk | 1 | 3.50e6 | 3.96e6 | 4.01e6 |
| d4 | 1 | 3.33e6 | 4.17e6 | 4.02e6 |
| d4 | 2 | 3.32e6 | 3.83e6 | 3.89e6 |
| CG13539 | 1 | 3.41e6 | 3.82e6 | 3.88e6 |
| CG10694 | 1 | 3.56e6 | 4.13e6 | 3.94e6 |
| mTor | 1 | 3.36e6 | 3.87e6 | 3.68e6 |
| CG15130 | 1 | 3.56e6 | 4.07e6 | 4.00e6 |
| CG15023 | 1 | 3.70e6 | 4.34e6 | 4.04e6 |
| CG9897 + asRNA:CR42742 | 1 | 3.47e6 | 3.99e6 | 3.86e6 |
| slgA | 1 | 3.55e6 | 4.00e6 | 4.07e6 |
| yrt | 1 | 3.37e6 | 3.91e6 | 3.69e6 |
| CG31088 | 1 | 3.57e6 | 3.95e6 | 4.14e6 |
| wat | 1 | 3.48e6 | 3.99e6 | 3.87e6 |
| Duox | 1 | 3.52e6 | 3.95e6 | 4.01e6 |
| dsb | 1 | 3.24e6 | 3.67e6 | 3.69e6 |
| dsb | 2 | 3.57e6 | 4.00e6 | 4.08e6 |
| CG12128 + CG1407 | 1 | 3.76e6 | 4.20e6 | 4.30e6 |
| CG32119 | 1 | 3.83e6 | 4.38e6 | 4.19e6 |
| CG32119 | 2 | 3.39e6 | 3.82e6 | 3.93e6 |
| CG13196 | 1 | 3.63e6 | 4.15e6 | 4.11e6 |
| Rox8 | 1 | 3.53e6 | 4.02e6 | 3.96e6 |
| Eph | 1 | 3.48e6 | 3.92e6 | 3.99e6 |
| blo | 1 | 3.59e6 | 4.11e6 | 4.04e6 |
| Pkg21D | 1 | 3.67e6 | 4.00e6 | 4.35e6 |
| CG6674 | 1 | 3.52e6 | 4.04e6 | 3.95e6 |
| CG34045 | 1 | 3.56e6 | 3.98e6 | 4.08e6 |
| CG30154 | 1 | 3.49e6 | 3.96e6 | 3.97e6 |
| a10 | 1 | 3.49e6 | 3.98e6 | 3.92e6 |
| CG1958 | 1 | 3.46e6 | 3.94e6 | 3.93e6 |
| tw | 1 | 3.41e6 | 3.95e6 | 3.80e6 |
| CG6435 | 1 | 3.64e6 | 4.06e6 | 4.15e6 |
| Klp61F | 1 | 3.36e6 | 3.85e6 | 3.79e6 |
| Gmd | 1 | 3.83e6 | 4.47e6 | 4.25e6 |
| Doa | 1 | 3.44e6 | 3.98e6 | 3.81e6 |
| Doa | 2 | 3.42e6 | 3.91e6 | 3.82e6 |
| Doa | 3 | 3.48e6 | 3.89e6 | 4.01e6 |
| Doa | 4 | 3.49e6 | 3.91e6 | 4.01e6 |
| Doa | 5 | 3.45e6 | 3.88e6 | 3.93e6 |
| Doa | 6 | 3.37e6 | 3.79e6 | 3.89e6 |
| sut1 | 1 | 3.71e6 | 4.08e6 | 4.35e6 |
| CG9316 | 1 | 3.52e6 | 3.99e6 | 3.98e6 |
| CG32182 | 1 | 3.44e6 | 3.88e6 | 3.97e6 |
| tin | 1 | 3.78e6 | 4.57e6 | 4.02e6 |
| tin | 2 | 3.08e6 | 3.80e6 | 3.65e6 |
| tin | 3 | 3.34e6 | 3.82e6 | 3.77e6 |
| osy | 1 | 3.34e6 | 3.68e6 | 3.80e6 |
| osy | 2 | 3.36e6 | 3.77e6 | 3.77e6 |
| osy | 3 | 3.45e6 | 3.89e6 | 3.93e6 |
| CG32547 | 1 | 3.52e6 | 3.96e6 | 4.02e6 |
| CG32547 | 2 | 3.42e6 | 3.90e6 | 3.90e6 |
| CG32547 | 3 | 3.48e6 | 3.98e6 | 3.90e6 |
| CG32547 | 4 | 3.38e6 | 3.78e6 | 3.83e6 |
